The source of these data is publication PMC6366424.

For some assays here: Negatives hold for the conditions tested. For some assays here: Where a protein sequence is shown, tags need not be part of it.

Experiment in all cases: enzyme inhibition
In data set [1] the test system is thrombin (Homo sapiens (human)). Conditions: 50x molar excess aptamer, commercial protein, single-stranded DNA.
Data set [2] addresses T1, neutrophil elastase (Homo sapiens (human)) (UniProt P08246).
T1 sequence (looked up, limits assumed): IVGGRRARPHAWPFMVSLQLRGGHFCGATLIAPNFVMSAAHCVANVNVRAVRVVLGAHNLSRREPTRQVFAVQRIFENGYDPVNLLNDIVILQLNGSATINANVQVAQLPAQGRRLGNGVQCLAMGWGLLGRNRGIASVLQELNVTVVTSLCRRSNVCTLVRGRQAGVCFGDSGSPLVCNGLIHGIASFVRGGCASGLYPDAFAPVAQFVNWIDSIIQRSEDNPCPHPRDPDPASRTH
Conditions: 50x molar excess aptamer, commercial protein, single-stranded DNA.

The target in data set [3] is T2, cathepsin G (Homo sapiens (human)) (UniProt P08311).
T2 sequence (looked up, limits assumed): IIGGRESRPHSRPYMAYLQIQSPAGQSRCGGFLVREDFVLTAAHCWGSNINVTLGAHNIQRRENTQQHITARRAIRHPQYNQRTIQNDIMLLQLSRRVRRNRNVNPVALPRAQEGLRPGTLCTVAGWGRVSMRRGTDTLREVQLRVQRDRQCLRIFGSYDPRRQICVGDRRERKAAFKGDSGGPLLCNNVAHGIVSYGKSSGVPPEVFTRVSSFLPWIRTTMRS
To be noted: 50x molar excess aptamer, commercial protein, single-stranded DNA.

Data set [4] addresses porcine trypsin (Sus scrofa (porcine)) (UniProt P00761). To be noted: 50x molar excess aptamer, commercial protein, single-stranded DNA.
Data set [5] addresses pancreatic elastase (Sus scrofa (porcine)) (UniProt P00772). To be noted: 50x molar excess aptamer, commercial protein, single-stranded DNA.
Data set [6] has as its system plasmin (Homo sapiens (human)). To be noted: 50x molar excess aptamer, commercial protein, single-stranded DNA.
The target of data set [7] is bovine trypsin (Bos taurus (bovine)) (UniProt P00760). Conditions: commercial protein, single-stranded DNA.
Where [8] appears, read: label: 5'-biotin in binding assays.
The mark [9] stands for this setting: inhibition unaffected, letters put together from the description.
[10] abbreviates: BAPNA, label: 5'-biotin in binding assays.

For “CATGCTTCCCCAGGGAGATGGGTGTGAGGTTAGTTTGCGGGAACTAGAATTCCTGGCAAAGGGGGGCCTGGAGGAACATGCGTCGCAAAC [T24]”, the binding result in data set [1] (setting [8]), in data set [2] (setting [8]), in data set [3] (setting [8]), in data set [4] (setting [8]), in data set [5] (setting [8]) and in data set [6] (setting [8]) was “no binding” throughout.
In the case of “CAGGGAGATGGGTGTGAGGTTAGTTTGCGGGAACTAGAATTCCTGGCAAAGGGGGGCCTGGAGGAACATGCGTCGCAAAC [T24 delta a]”, the binding result in data set [7] (setting [9]) is given as “binds”.
On to “CATGCTTCCCCAGGGAGATGGGTGTGAGGTTAGGAAATCTGTGTTGAACACTGCTTTCAGGGGGCTTGGGAGGAACATGCGTCGCAAAC [T22]”, for which the binding result in data set [7] (setting [10]) is “binds”.
With “CATGCTTCCCCAGGGAGATGGGTGTGGGGTTAGGTCACTTTATGGTTGGTTCCATTGTGTCAGGGAGCCGGGAGGAACATGCGTCGCAAAC [T21]”, the binding result in data set [7] (setting [10]) was “binds”.
Regarding “CATGCTTCCCCAGGGAGATGGGTGTGAGGTTAGTTTGCGGGAACTAGAATTCCTGGCAAAGGGGGGCCTGGAGGAACATG [T24 delta i]”, the binding result in data set [7] (setting [9]) was “binds”.
On to “CATGCTTCCCCAGGGAGATGACGCACATGTGGTTTTTAGACGGGCGTCCTGTGATGGGAGCGGGGTTAGGGAGGAACATGCGTCGCAAAC [T3]”, for which the binding result in data set [7] (setting [10]) was “binds”.
On to “CATGCTTCCCCAGGGAGATGGGTGTGAGGTTAGTTTGCGGTCCTGGCAAAGGGGGGCCTGGAGGAACATG [T59]”, for which the binding result in data set [1], in data set [2], in data set [3], in data set [4], in data set [5] and in data set [6] was “no binding” in each case.
